The target in the experiment is T1, Nep4A::roGFP (Drosophila Neprilysin 4, isoform A, fused to roGFP2) (Drosophila melanogaster) (UniProt Q8T062).
T1 sequence: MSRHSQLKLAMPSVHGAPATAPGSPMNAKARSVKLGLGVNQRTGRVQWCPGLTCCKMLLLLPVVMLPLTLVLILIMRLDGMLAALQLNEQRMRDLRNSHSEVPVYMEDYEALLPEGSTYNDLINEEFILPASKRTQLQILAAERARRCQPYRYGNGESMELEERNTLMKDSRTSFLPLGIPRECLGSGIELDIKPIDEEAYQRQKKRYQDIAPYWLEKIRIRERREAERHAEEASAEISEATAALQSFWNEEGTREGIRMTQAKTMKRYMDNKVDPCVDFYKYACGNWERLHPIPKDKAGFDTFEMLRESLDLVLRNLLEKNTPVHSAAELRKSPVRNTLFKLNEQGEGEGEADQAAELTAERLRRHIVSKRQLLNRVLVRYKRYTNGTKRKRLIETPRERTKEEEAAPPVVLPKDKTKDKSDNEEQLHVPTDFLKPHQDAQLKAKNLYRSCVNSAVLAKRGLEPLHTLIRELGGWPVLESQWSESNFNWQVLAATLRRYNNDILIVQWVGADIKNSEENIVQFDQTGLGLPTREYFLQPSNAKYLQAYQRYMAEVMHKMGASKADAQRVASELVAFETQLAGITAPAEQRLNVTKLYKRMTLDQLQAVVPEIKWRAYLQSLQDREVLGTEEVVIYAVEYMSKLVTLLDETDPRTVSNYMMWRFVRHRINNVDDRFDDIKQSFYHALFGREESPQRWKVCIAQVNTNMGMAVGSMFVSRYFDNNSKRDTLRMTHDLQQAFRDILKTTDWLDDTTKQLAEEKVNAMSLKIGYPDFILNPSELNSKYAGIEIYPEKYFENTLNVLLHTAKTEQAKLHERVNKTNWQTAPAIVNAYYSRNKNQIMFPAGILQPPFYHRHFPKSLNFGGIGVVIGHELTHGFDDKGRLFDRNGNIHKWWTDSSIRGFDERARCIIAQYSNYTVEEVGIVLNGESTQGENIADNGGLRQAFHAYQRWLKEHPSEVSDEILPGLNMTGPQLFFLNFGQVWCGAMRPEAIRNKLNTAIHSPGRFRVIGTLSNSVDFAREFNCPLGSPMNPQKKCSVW
Kind of experiment: affinity purification with mass spectrometry; GFP-tagged bait expressed in third instar larval muscle (mef2-Gal4); larval homogenate in 150 mM NaCl, 50 mM Tris, 1 mM MgCl, 0.2% DDM; anti-GFP MicroBeads, 30 min at 4 °C; on-column trypsin digest, label-free quantification, three biological replicates.

Chains of the proteins cited; added tags and fusions are not shown.
UniProt P22700: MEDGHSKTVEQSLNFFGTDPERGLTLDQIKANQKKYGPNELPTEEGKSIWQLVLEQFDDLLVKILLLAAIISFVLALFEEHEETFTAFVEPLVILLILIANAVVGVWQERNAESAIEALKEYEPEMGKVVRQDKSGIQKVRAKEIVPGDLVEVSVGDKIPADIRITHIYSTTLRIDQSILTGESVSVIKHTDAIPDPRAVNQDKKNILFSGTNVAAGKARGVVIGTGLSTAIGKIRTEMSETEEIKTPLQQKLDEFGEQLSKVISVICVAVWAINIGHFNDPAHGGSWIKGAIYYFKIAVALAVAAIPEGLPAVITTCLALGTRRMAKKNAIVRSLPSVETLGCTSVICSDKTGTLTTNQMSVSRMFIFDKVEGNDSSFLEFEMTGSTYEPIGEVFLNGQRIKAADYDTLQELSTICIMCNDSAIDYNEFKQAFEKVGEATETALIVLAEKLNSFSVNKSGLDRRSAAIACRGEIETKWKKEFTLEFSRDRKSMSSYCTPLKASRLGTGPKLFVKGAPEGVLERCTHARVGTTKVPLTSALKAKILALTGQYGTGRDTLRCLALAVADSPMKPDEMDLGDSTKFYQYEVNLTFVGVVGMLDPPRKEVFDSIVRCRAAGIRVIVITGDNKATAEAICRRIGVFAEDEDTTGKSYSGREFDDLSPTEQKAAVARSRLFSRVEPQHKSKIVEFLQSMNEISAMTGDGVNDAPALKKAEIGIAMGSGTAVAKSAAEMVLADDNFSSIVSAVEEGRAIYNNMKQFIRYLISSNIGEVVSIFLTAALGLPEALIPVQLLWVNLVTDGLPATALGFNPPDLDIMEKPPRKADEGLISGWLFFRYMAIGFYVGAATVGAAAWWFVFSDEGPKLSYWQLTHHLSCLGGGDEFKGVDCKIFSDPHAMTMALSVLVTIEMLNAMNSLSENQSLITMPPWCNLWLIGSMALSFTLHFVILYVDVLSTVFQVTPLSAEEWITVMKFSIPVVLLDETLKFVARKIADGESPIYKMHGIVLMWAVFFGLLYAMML

These are yes or no findings as the source states them, for the method shown. Binding seen in cells or lysates may run through a third protein. A yes stands for co-enrichment or nearness to the bait. Other partners may have been found. Sequences can lack the tags named with a protein.

“sarcoplasmic and endoplasmic reticulum Ca2+ ATPase (SERCA), Drosophila (from UniProt P22700 1-1020) (enzyme)”: the binding entry is on record as “binds”.

The values above are taken from publication PMC9338278.
